Measurements published in patent US4216128A, “Enkephalin analogues” (American Home Products Corporation, priority 1979, dated 1980).
For at least one compound, name, drawing or mass did not settle the structure.

Columns and labels:
CF-1 mice = test: phenylbenzoquinone induced writhing test (analgesia); type: in vivo; details: for percent demonstrating analgesia: dose of 0.56 mg/kg
opiate receptor = test: relative displacement potency, procedure of Chang et al.; type: binding; details: relative to morphine

What does the source list for `CN[C@@H](Cc1ccc(O)cc1)C(=O)N[C@H](CS)C(=O)NCC(=O)N(C)[C@@H](Cc1ccccc1)C(=O)N[C@H](CO)C(N)=O` [N(Me)Tyr-D-Cys-Gly-N(Me)Phe-D-Ser-NH2, N-Methyl-L-tyrosyl-D-cysteinyl-glycyl-N-methyl-L-phenylalanyl-D-seryl amide]?
percent demonstrating analgesia (CF-1 mice; at 15 minutes): 50%; percent demonstrating analgesia (CF-1 mice; at 30 minutes): 40%; percent demonstrating analgesia (CF-1 mice; at 45 minutes): 30%; percent of the animals with analgesia (CF-1 mice; dose of 10 mg/kg, for a period of forty five minutes): 100%; percent analgesia after oral administration (CF-1 mice; oral dose of 50 mg/kg, 30 minutes): 50%; ED50 (analgesia, absence of writhing) (CF-1 mice; subcutaneous administration, at 15 minutes, mice): 0.85 mg/kg; relative displacement potency (opiate receptor): twenty six
